{"source": "patent US20180310561A1", "about": "(priority 2015, published 2018)", "key": {"Botrytis cinerea": {"system": "Botrytis cinerea", "test": "Activity against the grey mold Botrytis cinerea in the microtiterplate test", "assay_type": "cell-based", "settings": "32 ppm active substance; measured at 405 nm 7 days after inoculation; relative to active compound-free control (100%)"}, "Pyricularia oryzae": {"system": "Pyricularia oryzae", "assay_type": "cell-based", "settings": "32 ppm active substance; measured at 405 nm 7 days after inoculation; relative to active compound-free control (100%)"}, "Septoria tritici": {"system": "Septoria tritici", "test": "Activity against leaf blotch on wheat caused by Septoria tritici (microtiter plate)", "assay_type": "cell-based", "settings": "32 ppm active substance; measured at 405 nm 7 days after inoculation; relative to active compound-free control (100%)"}, "Venturia inaequalis": {"system": "Venturia inaequalis", "test": "Green house: preventative fungicidal control of apple scab Venturia inaequalis on apple seedlings", "assay_type": "in vivo", "settings": "63 ppm, sprayed one day before inoculation, assessed after 12 days, untreated plants 90% diseased leaf area"}}, "note": "Some of these results come from one statement about several compounds together.", "data": [{"smiles": "Cc1cc(C2=NC(C)(C)Cc3c(Br)cccc32)cnc1C", "note": "[I-1, 5-Bromo-1-(5,6-dimethyl-3-pyridyl)-3,3-dimethyl-4H-isoquinoline]", "values": [{"measurement": "growth of the pathogen", "setting": "Botrytis cinerea", "result": "at most 18%"}, {"measurement": "growth of the pathogen", "setting": "Pyricularia oryzae", "result": "at most 10%"}, {"measurement": "growth of the pathogen", "setting": "Septoria tritici", "result": "at most 15%"}, {"measurement": "diseased leaf area", "setting": "Venturia inaequalis", "result": "at most 10%"}]}, {"smiles": "Cc1cc(C2=NC(C)(C)Cc3c(C#N)cccc32)cnc1C", "note": "[I-7, 5-Cyano-1-(5,6-dimethyl-3-pyridyl)-3,3-dimethyl-4H-isoquinoline]", "values": [{"measurement": "diseased leaf area", "setting": "Venturia inaequalis", "result": "at most 10%"}]}, {"smiles": "Cc1cc(C2=NC(C)(c3ccccc3)Cc3c(C)cccc32)cnc1C", "note": "(stereo not shown) [I-9, 1-(5,6-dimethyl-3-pyridyl)-3,5-dimethyl-3-phenyl-4H-isoquinoline]", "values": [{"measurement": "growth of the pathogen", "setting": "Botrytis cinerea", "result": "at most 18%"}, {"measurement": "growth of the pathogen", "setting": "Pyricularia oryzae", "result": "at most 10%"}]}]}
